Among all 52,000 sequences or so, about 210 (0.4%) were called active.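 How the source made its calls: active means gene whose silencing raises cell survival under the drug, median off-target-corrected z-score across its silencing RNAs 2 or more; inactive means the rest.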 This is one part of the list.

A short description of the assay: Resistance to Poly (ADP-Ribose) Polymerase inhibitor: Gene Identification via Genome-wide siRNA Screen. The note with it: mouse BRCA2 R2336H ES cells, olaparib, CellTiter-Glo viability; active compounds read high. In outline: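 Genome-wide siRNA screen (3 siRNAs/gene, 20 nM) in mouse ES cells carrying hypomorphic BRCA2 R2336H; olaparib 500 nM added 48 h post-transfection, CellTiter-Glo viability 72 h later. Normalized to plate-median negative control; MAD z-scores, gene median, seed-adjusted.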
Turning to GCAAGAUCUGUAUGUCCGCTT against Ebf3, the z-score is inactive: -0.0362.

As for “GCAUUAGGUAAAACUCUUATT against 4932443D16Rik”, the z-score was inactive: 0.994.

As for UUGCAUUACGUGUGGUAUGTT against Mustn1, the z-score was inactive: -0.432.

On to CCAGGUGAAAACCAGGAUATT against Olfr205, for which the z-score is inactive: 0.33.

As to GGAACCACAUGACUUCAGCTT against Tctex1, the z-score is inactive: -0.00883.

On to “GCCCAUCUGAUGAAUACAATT against 2610012O22Rik”, for which the z-score is inactive: -0.299.

In the case of GGCCAUUGCCUCUUCUACUTT against Plekha4, the z-score is inactive: 0.227.

In the case of GGUCACUAUCUCUGAUUUCTT against Bpil1, the z-score is inactive: 0.402.

Take GGAACACACCAUCAUCCAGTT against H2-Ea: the z-score was inactive: -0.373.

For GGCUCAUUCCUCUUCUUCCTT against Serhl, the z-score is inactive: 2.98.

For the sequence GCAUUCAGAAUGAGCUGACTT against Nfasc, the z-score was inactive: -0.0641.

Regarding GCCGGAAGAUAAGGCUCAUTT against Gap43, the z-score is inactive: -1.62.

Regarding GGAAGUCAAUCAGAGUCUGTT against Chd1, the z-score was inactive: -1.05.

Consider GCUUUCAGAUGGCUUUAAUTT against Psmc6, for which the z-score was inactive: -2.89.

As for CCACCUUUCGUGCAUUAUCTT against Coro6, the z-score is inactive: 1.06.

With CCAUGUGUAAAGGGAGAAATT against Nxph2, the z-score is inactive: 0.765.

With “CCCACGAUACUCAAUUUUCTT against 1700006J14Rik”, the z-score is inactive: 0.872.

Turning to GGUUAAAAUGUUGAUUGCUTT against Ndrg4, the z-score was inactive: 0.116.

Take GGAGAAAGAUGGCAUAAUGTT against Slitrk6: the z-score was inactive: 0.284.

For “GGUAGAGCGACAACUGGAUTT against 9530058B02Rik”, the z-score was inactive: -0.831.

As to “GGCUCAAAGAAUAUGCCAATT against E130016E03Rik”, the z-score was inactive: 2.64.

As for GCACUUUCCUAAUGGUCCUTT against Ifnab, the z-score is inactive: 0.429.

As for CCACAUUCUAGGUAUCUUGTT against Mapk3, the z-score is inactive: 0.255.

Take GGCAUCUCUAUACCUGUCUTT against Adrb3: the z-score is inactive: -1.24.

Consider GGCCUGGAUAACAGAAAAUTT against Rbp7, for which the z-score is inactive: -1.16.

On to GGUCGUCUGAUUUUUGAUATT against Atp1a1, for which the z-score is inactive: -0.874.

With GCACUUUGACAUUUUGGUATT against Arl7, the z-score is inactive: -0.0589.

On to CCUAAAAGCCAUUAUCAAATT against Abce1, for which the z-score is inactive: 0.00585.

With CGUAUAUCCGGUCAGAAGATT against Cnot4, the z-score was inactive: 3.54.

Take GGUGCAAAACAUGUCUCAATT against Olfm1: the z-score is inactive: 0.457.

In the case of “GCUGGAGGACUCAUGUUCATT against 1500031M22Rik”, the z-score is inactive: -0.588.

For GCCCUUGAAUAGAAGACAGTT against Gosr2, the z-score was inactive: 1.93.

With GCAUGGAAUAAGUACAUUUTT against Slc1a1, the z-score is inactive: 0.883.

Turning to GGUUAUAUUAUGUAGCCUATT against Zfp393, the z-score is inactive: 0.947.

Turning to UAUUGUCACCGUCUUAGGCTT against Olfr1028, the z-score was inactive: -1.4.

As for GGUGGUUUUCAGCAAGUACTT against Pde9a, the z-score was inactive: -1.38.

In the case of CCUCCCAUGGUUCUUUCGUTT against Atp5g2, the z-score is inactive: -1.01.

For the sequence GGCCUUUCAGACUGUAUUGTT against Npr2, the z-score was inactive: -1.1.

Turning to GGCAAAAUCGUGGUUUCACTT against Cd53, the z-score is inactive: 0.444.

With GCGCAUACAGGAAUUUUUATT against Helb, the z-score is inactive: 4.36.

For the sequence “GGUUAAAGGUGUCUAUAAUTT against 4931400A14Rik”, the z-score was inactive: -0.00947.

GCUGACCGUUACAUCACCATT against Mc2r: the z-score is inactive: -0.811.

As to “GGUACUCUGGAGCUUCAAGTT against 2900092E17Rik”, the z-score was inactive: -0.232.

For the sequence GGCACCAAUUACAAGAAAATT against V1rg10, the z-score was inactive: -1.65.

Turning to GGGCUGUUCUAAUUCCUUCTT against Il17f, the z-score is inactive: 0.391.

Consider GGGUUAAAUGCAAUGCAGCTT against Cugbp1, for which the z-score was inactive: 0.708.

With GCUUUAUUCCUACCGGGAUTT against Dgat1, the z-score is inactive: 0.757.

Consider “GGAGCUACAAUCUGAAGUATT against 4930403L05Rik”, for which the z-score is inactive: -0.0543.

Regarding GGAAGAAACAACAAUGAUCTT against BB146404, the z-score is inactive: 0.6.

Take GGUUUUUCAAACAAGAGCATT against Slc16a10: the z-score is inactive: 0.608.

Take GGCGUAUACCGGGAAUCCUTT against Ndrl: the z-score is inactive: 0.787.

On to CGUAUCAGAUCGGGACUUUTT against Ifnk, for which the z-score is inactive: 0.493.

For the sequence GGUGAAACGCAAAAUAUUCTT against Klkb1, the z-score was inactive: 2.45.

As to CGAUGGGACCAAGAUUAGUTT against BC027127, the z-score was inactive: -0.013.

Turning to GGAGAUAUUUUUCUUGUCCTT against Vcp, the z-score is inactive: -3.1.

For the sequence GGCUCAGUAAGGACUCUGATT against Tac2, the z-score is inactive: 0.221.

In the case of UGGGUGAUCUCUGUAAUAATT against LOC387334, the z-score was inactive: -1.59.

CGGUCAACAUCAAUGGUAATT against Gkn1: the z-score is inactive: -1.21.

In the case of “GGCUCUUUCAACGUAAAUUTT against 6030441H18Rik”, the z-score is inactive: -0.877.

As for GCUACAUCUCAGAAAUCGGTT against Tbn, the z-score was inactive: 0.131.

GGCCUUUGGUACAUGUAGUTT against Olfr692: the z-score was inactive: 0.285.

In the case of GGAUUCAAAAAAAAAUCGCTT against A2m, the z-score was inactive: 1.46.

For CCCAUCUUCGUAAAGAGAATT against Mtx1, the z-score was inactive: 0.497.

In the case of “CCCUUAGGAAACAUGUGGATT against 4930519G04Rik”, the z-score is inactive: -0.75.

“GGACUUAGACAUCCACCUCTT against 1700034O15Rik”: the z-score was inactive: -0.799.

As to “GGAUACAAUCCGAAUGAUGTT against 2610208E05Rik”, the z-score is inactive: 0.718.

Regarding GGCUUCACUAUACGAGAGATT against Nical, the z-score is inactive: 0.501.

In the case of GCUACCUAUGCCAAUAUCATT against Efemp1, the z-score is inactive: 0.528.

For “GGUUUUUCUAACUUUGGUCTT against D030010E02Rik”, the z-score is inactive: -0.0912.

For the sequence GGCCUGUAGUCAAUGGAAATT against Acvrinp1, the z-score was inactive: 0.137.

On to CCUUAGAUAUCUACUGUAATT against Trim2, for which the z-score is inactive: 0.0568.

Turning to GCAUUUAUUACUGUGGAGATT against Olfr1467, the z-score was inactive: 0.795.

Consider “CGCCGAAACACUCGUUAUATT against 1110012E06Rik”, for which the z-score was inactive: 0.281.

Consider GGAACACUCUGAAUUCAUUTT against Cxcl15, for which the z-score is inactive: -0.473.

As to “CCUGACUCGUCUCAAUAAATT against 4930562D19Rik”, the z-score is inactive: -0.888.

As for “GCUCAAAAGAAGUGAGCCUTT against 4631405J19Rik”, the z-score was inactive: -1.08.

On to GUUACAGUAUUCUAUGGGATT against Olfr1080, for which the z-score is inactive: 0.947.

Take GGUGGAAGAUUAGUGACUUTT against Trim38: the z-score was inactive: -0.545.

Regarding CCCUAUACCUGAAGCAUUATT against Gabrr2, the z-score is inactive: -1.26.

On to “GCUUGAUUUGACCACGCUGTT against 5330410G16Rik”, for which the z-score was inactive: 2.36.

In the case of CGAAGAGUCCAUCAUUGCGTT against Dcpp, the z-score was inactive: -0.898.

As for GGCAUCUUCGAAAAAUGAUTT against Reck, the z-score was inactive: -0.0385.

As to “GGGAUAAAACAGGUUCAAGTT against 4933424N09Rik”, the z-score was inactive: 0.727.

Consider GGAUAAGGAUGCUAAAUUCTT against Rps13, for which the z-score is inactive: -3.12.

Consider GGGAAGUUAUAAUGGAAGUTT against Rps15a, for which the z-score was inactive: -0.0112.

For the sequence “GCAUCAGAUGGCUAUUUGUTT against 2510001I10Rik”, the z-score was inactive: -0.0394.

As to CGUAUCAACAUCUCAGAAGTT against Pcbp2, the z-score was inactive: 0.263.

Take GCUAAAGAAGGUAACUCAGTT against Zfyve28: the z-score was inactive: -0.0366.

As to GGAUAAUGGAGCAAAUUGCTT against Slc22a1, the z-score is inactive: 0.0691.

As for “UGAUAAGUAGUCCCUCCUUTT against 7420402K12Rik”, the z-score is inactive: -0.676.

As to GCGCAAUUAAAGAAGAACATT against Tcerg1, the z-score is inactive: 0.333.

Regarding GGAACUACAACAGAAACGATT against Azi1, the z-score was inactive: -1.11.

CCUAUACCAGAUUUACAGGTT against Mtx1: the z-score was inactive: 0.0749.

Consider “GGCAGAAAGUAAAUCCGUGTT against 1200009I06Rik”, for which the z-score was inactive: -0.871.

With GGCAACGGUUGAAUAAACATT against Mrgpra3, the z-score is inactive: 0.186.

Turning to GCAAAUUGGUCAUCGACUGTT against Alg1, the z-score is inactive: 0.915.

Take GGACAUUCUCUACCGAAUATT against Bucs1: the z-score was inactive: -0.639.

For GCUCUCACAGGAUAAGGCUTT against Cryga, the z-score was inactive: 0.229.

In the case of GGUCAACUAAGUUAAAUGGTT against Pnma2, the z-score is inactive: 1.67.

Take GGCCCAAGAGCAUUCUGGATT against Slc25a19: the z-score is inactive: -0.238.

CCCUCGAAAAGACAGUGAGTT against Tbx1: the z-score is inactive: 0.284.

As to “GGCCACUUUUCACCACAAATT against 1700006H02Rik”, the z-score was inactive: -0.00624.

For the sequence “GGAGGAGCAACCCAUGUCUTT against ICRFP703B1614Q5.6”, the z-score was inactive: -0.195.
